The values that follow come from article PMC5550887.

The chains behind the UniProt entries cited, without tags or fusion partners. Residues count along the entry.
UniProt P11021, residues 19-654: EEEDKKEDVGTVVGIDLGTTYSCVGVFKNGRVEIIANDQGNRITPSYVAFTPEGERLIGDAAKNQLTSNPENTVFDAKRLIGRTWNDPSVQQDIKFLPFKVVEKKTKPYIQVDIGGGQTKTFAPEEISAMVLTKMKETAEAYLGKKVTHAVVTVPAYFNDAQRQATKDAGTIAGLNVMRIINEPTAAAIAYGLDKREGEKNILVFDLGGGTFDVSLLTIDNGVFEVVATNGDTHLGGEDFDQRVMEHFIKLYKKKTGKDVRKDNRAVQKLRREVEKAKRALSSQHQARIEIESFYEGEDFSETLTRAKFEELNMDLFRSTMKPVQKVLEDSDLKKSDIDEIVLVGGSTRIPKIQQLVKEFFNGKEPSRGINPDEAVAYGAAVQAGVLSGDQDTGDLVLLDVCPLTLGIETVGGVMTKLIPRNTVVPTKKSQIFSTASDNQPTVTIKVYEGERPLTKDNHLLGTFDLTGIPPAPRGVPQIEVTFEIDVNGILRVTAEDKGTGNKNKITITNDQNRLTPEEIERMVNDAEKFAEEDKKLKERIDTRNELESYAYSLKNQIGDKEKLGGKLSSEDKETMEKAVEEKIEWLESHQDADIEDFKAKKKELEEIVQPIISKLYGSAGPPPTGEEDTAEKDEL
UniProt P45983: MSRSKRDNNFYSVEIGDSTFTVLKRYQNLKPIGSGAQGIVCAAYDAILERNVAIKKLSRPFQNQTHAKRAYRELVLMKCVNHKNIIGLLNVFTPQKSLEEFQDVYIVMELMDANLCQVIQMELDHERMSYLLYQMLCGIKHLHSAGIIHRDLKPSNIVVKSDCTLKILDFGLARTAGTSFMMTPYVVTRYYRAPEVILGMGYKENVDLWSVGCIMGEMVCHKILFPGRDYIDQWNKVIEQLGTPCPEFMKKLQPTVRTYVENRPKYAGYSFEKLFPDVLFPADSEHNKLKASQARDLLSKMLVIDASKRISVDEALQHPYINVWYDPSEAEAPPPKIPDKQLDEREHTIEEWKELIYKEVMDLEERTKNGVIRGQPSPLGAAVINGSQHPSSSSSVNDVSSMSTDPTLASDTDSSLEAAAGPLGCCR

Results are given in words; binding and its absence hold for the method and conditions named. Binding seen in cells or lysates may run through a third protein.

The target of the assay is T1, WWOX (WW domain containing oxidoreductase) (UniProt Q9NZC7).
T1 sequence: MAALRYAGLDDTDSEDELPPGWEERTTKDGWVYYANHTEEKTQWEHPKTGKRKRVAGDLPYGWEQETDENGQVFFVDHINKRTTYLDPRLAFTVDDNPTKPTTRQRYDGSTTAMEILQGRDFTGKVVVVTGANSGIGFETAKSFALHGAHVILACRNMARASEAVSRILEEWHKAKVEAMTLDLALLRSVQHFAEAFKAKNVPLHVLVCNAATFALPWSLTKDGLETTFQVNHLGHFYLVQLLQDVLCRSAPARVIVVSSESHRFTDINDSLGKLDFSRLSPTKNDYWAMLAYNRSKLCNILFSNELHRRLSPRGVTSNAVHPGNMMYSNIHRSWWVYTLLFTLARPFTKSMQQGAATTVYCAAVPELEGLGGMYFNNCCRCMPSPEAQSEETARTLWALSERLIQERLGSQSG
Put plainly: co-IP; lysates of cells exposed to paclitaxel (WWOX-8 cells named for GRP78); lysis in 0.5-1% Triton X or 0.5-1% NP40, 10% glycerol, 150 mM NaCl, 50 mM Tris-HCl pH 7.2; 2 ug relevant or control antibody, Protein A/G UltraLink resin, 4 °C; immunoblot.

As for “glucose-related protein 78 (GRP78) (from UniProt P11021 19-654)”, the binding result is “no binding”.

For the substance “c-Jun N-terminal kinase 1 (JNK1) (from UniProt P45983 1-427)”, the binding result is recorded as “no binding”.
